From publication PMC5562840, “TRPM6 and TRPM7 differentially contribute to the relief of heteromeric TRPM6/7 channels from inhibition by cytosolic Mg^2+ and Mg·ATP” (Scientific Reports, 2017) come the findings set out here.

Protein sequences, listed by entry. Tags and fused reporters are not part of them.
UniProt Q923J1: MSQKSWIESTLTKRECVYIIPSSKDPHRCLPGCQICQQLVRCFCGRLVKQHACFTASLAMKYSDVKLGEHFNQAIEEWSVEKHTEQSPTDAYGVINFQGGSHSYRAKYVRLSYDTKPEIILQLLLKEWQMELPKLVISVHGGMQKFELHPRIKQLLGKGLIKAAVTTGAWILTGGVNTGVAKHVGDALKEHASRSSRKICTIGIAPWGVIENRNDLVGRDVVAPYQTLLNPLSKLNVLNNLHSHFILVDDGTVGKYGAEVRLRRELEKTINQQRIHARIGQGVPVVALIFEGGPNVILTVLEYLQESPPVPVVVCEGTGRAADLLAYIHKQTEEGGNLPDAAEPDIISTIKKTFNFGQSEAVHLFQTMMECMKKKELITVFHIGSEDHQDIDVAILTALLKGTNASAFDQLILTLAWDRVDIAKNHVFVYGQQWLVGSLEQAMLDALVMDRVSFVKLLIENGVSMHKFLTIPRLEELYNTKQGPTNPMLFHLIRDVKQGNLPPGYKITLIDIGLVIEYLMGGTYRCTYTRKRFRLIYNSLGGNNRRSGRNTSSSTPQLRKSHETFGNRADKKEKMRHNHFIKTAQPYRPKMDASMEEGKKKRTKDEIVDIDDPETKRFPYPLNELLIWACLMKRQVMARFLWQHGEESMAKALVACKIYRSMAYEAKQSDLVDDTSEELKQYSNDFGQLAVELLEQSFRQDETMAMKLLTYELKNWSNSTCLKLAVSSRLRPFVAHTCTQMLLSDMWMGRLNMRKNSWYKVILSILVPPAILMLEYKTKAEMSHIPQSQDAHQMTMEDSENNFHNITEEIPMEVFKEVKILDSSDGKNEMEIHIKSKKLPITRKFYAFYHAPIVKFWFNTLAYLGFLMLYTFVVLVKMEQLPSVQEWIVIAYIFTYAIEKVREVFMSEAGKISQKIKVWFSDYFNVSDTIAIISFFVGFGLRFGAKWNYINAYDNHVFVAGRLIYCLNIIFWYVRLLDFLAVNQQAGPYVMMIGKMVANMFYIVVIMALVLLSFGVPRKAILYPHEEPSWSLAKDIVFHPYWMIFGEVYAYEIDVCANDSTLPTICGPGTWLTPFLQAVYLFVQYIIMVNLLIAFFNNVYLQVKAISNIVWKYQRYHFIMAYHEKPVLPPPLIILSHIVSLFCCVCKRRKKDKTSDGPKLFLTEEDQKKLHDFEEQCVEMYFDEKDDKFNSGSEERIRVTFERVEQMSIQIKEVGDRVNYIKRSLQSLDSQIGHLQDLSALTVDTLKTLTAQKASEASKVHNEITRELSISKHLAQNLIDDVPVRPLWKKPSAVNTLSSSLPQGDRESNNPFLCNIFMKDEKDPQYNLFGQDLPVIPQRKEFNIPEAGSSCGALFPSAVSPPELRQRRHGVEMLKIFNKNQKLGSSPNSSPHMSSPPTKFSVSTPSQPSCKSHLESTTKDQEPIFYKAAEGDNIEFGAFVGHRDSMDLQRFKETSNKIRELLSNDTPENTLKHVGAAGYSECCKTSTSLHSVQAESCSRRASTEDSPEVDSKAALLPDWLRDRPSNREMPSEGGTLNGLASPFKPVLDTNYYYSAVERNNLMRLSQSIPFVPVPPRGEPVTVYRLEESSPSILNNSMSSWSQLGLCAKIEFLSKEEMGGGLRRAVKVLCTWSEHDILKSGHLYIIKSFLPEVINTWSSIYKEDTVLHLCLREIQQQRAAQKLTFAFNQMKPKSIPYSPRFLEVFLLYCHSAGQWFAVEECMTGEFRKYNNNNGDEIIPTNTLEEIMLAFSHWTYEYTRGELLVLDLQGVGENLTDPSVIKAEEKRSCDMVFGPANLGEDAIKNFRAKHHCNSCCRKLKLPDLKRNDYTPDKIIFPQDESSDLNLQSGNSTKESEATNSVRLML
UniProt Q8CIR4: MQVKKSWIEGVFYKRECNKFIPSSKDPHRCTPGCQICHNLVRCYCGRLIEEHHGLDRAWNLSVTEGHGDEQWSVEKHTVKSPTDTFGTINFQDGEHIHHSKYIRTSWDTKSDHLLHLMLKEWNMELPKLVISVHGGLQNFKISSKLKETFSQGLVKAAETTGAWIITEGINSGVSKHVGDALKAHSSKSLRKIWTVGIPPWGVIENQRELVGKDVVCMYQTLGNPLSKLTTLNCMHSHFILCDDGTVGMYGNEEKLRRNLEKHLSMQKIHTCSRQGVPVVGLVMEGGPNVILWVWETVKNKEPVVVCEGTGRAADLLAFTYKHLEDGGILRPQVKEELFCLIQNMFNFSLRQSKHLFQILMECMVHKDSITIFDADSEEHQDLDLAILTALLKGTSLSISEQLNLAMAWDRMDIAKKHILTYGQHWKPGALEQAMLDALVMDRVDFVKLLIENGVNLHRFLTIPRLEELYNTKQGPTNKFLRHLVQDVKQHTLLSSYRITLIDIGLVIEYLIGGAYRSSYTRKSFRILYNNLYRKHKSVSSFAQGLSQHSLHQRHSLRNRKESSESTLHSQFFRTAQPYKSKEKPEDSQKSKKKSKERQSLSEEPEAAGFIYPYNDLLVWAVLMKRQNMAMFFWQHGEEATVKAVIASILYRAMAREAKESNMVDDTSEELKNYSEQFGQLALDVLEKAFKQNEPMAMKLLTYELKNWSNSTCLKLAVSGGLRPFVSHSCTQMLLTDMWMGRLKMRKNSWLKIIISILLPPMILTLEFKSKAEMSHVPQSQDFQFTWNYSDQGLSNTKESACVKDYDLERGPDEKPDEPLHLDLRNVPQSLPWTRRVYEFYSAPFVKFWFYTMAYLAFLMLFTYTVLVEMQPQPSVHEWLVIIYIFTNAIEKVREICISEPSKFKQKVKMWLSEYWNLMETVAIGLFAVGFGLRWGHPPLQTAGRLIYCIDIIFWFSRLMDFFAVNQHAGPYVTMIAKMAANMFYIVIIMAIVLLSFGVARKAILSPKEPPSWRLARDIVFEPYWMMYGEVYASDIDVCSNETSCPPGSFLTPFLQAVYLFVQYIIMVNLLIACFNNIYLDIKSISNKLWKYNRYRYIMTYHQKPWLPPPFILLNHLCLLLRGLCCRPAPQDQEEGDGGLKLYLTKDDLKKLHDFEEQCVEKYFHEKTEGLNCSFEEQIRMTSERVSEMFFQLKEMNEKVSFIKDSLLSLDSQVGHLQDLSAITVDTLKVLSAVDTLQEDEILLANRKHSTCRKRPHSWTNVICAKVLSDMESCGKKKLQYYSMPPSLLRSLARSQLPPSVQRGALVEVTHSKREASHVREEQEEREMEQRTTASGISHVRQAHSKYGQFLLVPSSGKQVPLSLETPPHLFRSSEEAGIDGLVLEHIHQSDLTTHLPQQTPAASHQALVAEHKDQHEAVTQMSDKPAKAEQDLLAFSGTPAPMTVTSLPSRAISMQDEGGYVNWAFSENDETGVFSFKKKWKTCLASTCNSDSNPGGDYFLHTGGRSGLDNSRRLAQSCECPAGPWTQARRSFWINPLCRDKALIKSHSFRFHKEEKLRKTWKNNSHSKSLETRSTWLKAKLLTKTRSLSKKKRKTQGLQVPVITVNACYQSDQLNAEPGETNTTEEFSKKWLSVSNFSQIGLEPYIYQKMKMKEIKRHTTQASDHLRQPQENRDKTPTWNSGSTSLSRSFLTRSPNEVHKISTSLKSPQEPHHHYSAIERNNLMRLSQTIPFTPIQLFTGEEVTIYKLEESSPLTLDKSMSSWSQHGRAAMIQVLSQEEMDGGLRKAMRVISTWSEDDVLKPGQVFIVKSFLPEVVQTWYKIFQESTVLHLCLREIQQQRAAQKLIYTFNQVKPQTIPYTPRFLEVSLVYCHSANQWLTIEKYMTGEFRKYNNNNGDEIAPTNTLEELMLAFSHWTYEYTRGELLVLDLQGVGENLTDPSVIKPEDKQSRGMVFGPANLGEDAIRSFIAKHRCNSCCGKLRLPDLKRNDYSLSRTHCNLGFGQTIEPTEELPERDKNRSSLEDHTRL

The target of the assay is mouse TRPM7 (mTRPM7) fused to a myc tag (mTRPM7-myc) (mouse) (UniProt Q923J1). The assay can be described thus: co-IP; HEK 293 cells co-transfected with mTRPM7-myc and a YFP-tagged channel; lysis in PBS with 1% Triton X-100 and protease inhibitors; anti-myc 9E10 antibody on Protein A/G magnetic beads, overnight at 4 °C; blots with anti-GFP (cross-reacting with YFP) or anti-myc.

Results are given in words; binding and its absence hold for the method and conditions named. Binding seen in cells or lysates may run through a third protein. Some binding calls cover weakened binding; strength is not graded here. Sequences can lack the tags named with a protein.

On to “mouse TRPM6 with a C-terminal yellow fluorescent protein tag (mTRPM6-YFP) (from UniProt Q8CIR4 1-2028)”, for which the binding entry is recorded as “binds”.

B1: mTRPM5 containing a YFP tag (mTRPM5-YFP) (protein, UniProt Q9JJH7 1-1158)
chain: MQTTQSSCPGSPPDTEDGWEPILCRGEINFGGSGKKRGKFVKVPSSVAPSVLFELLLTEWHLPAPNLVVSLVGEERPLAMKSWLRDVLRKGLVKAAQSTGAWILTSALHVGLARHVGQAVRDHSLASTSTKIRVVAIGMASLDRILHRQLLDGVHQKEDTPIHYPADEGNIQGPLCPLDSNLSHFILVESGALGSGNDGLTELQLSLEKHISQQRTGYGGTSCIQIPVLCLLVNGDPNTLERISRAVEQAAPWLILAGSGGIADVLAALVSQPHLLVPQVAEKQFREKFPSECFSWEAIVHWTELLQNIAAHPHLLTVYDFEQEGSEDLDTVILKALVKACKSHSQEAQDYLDELKLAVAWDRVDIAKSEIFNGDVEWKSCDLEEVMTDALVSNKPDFVRLFVDSGADMAEFLTYGRLQQLYHSVSPKSLLFELLQRKHEEGRLTLAGLGAQQARELPIGLPAFSLHEVSRVLKDFLHDACRGFYQDGRRMEERGPPKRPAGQKWLPDLSRKSEDPWRDLFLWAVLQNRYEMATYFWAMGREGVAAALAACKIIKEMSHLEKEAEVARTMREAKYEQLALDLFSECYGNSEDRAFALLVRRNHSWSRTTCLHLATEADAKAFFAHDGVQAFLTKIWWGDMATGTPILRLLGAFTCPALIYTNLISFSEDAPQRMDLEDLQEPDSLDMEKSFLCSRGGQLEKLTEAPRAPGDLGPQAAFLLTRWRKFWGAPVTVFLGNVVMYFAFLFLFTYVLLVDFRPPPQGPSGSEVTLYFWVFTLVLEEIRQGFFTDEDTHLVKKFTLYVEDNWNKCDMVAIFLFIVGVTCRMVPSVFEAGRTVLAIDFMVFTLRLIHIFAIHKQLGPKIIIVERMMKDVFFFLFFLSVWLVAYGVTTQALLHPHDGRLEWIFRRVLYRPYLQIFGQIPLDEIDEARVNCSLHPLLLESSASCPNLYANWLVILLLVTFLLVTNVLLMNLLIAMFSYTFQVVQGNADMFWKFQRYHLIVEYHGRPALAPPFILLSHLSLVLKQVFRKEAQHKRQHLERDLPDPLDQKIITWETVQKENFLSTMEKRRRDSEGEVLRKTAHRVDLIAKYIGGLREQEKRIKCLESQANYCMLLLSSMTDTLAPGGTYSSSQNCGCRSQPASARDREYLESGLPPSDT
Turning to B1, the binding result was “no binding”.
